{"source": "PubChem BioAssay AID504795 – Drosophila RNAi Screening Center, 2011", "test": "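Genes required for normal axon extension and glial cell shape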 (primary screen)", "system": "primary Drosophila neurons and glia", "reagents": "long dsRNA against Drosophila genes, 250 ng dsRNA per well", "time to read-out": "one week", "read-out": "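GFP-labelled neurons and glia imaged live by automated microscope one week after 250 ng dsRNA per well; morphology scored by eye as descriptive phenotype terms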", "note": "The reagents shown are a selection, not the whole library. 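Every listed dsRNA shows some phenotype; how reagents were selected for listing is not stated.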"}
{"gene": "CG12877 (GeneID 43333)", "phenotype seen, replicate 1": "reduced axon outgrowth"}
{"gene": "CG7368 (GeneID 39301)", "phenotype seen, replicate 1": "cell fragments present"}
{"gene": "Psc (GeneID 36431)", "phenotype seen, replicate 1": "axon bundles split apart"}
{"gene": "mTTF (GeneID 34837)", "phenotype seen, replicate 1": "axon bundles split apart"}
{"gene": "Smyd4-1 (GeneID 35985)", "phenotype seen, replicate 1": "axon bundles split apart"}
{"gene": "ave (GeneID 246638)", "phenotype seen, replicate 1": "too many neurite branches"}
{"gene": "Cat (GeneID 40048)", "phenotype seen, replicate 1": "axon bundles split apart"}
{"gene": "GluClalpha (GeneID 42350)", "phenotype seen, replicate 1": "too many neurite branches"}
{"gene": "CG13039 (GeneID 39805)", "phenotype seen, replicate 1": "too many neurite branches"}
{"gene": "CG10943 (GeneID 39462)", "phenotype seen, replicate 1": "reduced axon outgrowth"}
{"gene": "CG15773 (GeneID 31494)", "phenotype seen, replicate 1": "abnormal cell clusters"}
{"gene": "CG4328 (GeneID 39405)", "phenotype seen, replicate 1": "reduced axon outgrowth"}
{"gene": "CG30065 (GeneID 246431)", "phenotype seen, replicate 1": "too many neurite branches"}
{"gene": "CG14562 (GeneID 40439)", "phenotype seen, replicate 1": "reduced axon outgrowth"}
{"gene": "eIF3c (GeneID 37005)", "phenotype seen, replicate 1": "reduced axon outgrowth"}
{"gene": "Vha100-5 (GeneID 34587)", "phenotype seen, replicate 1": "fewer cells"}
{"gene": "EMC6 (GeneID 42992)", "phenotype seen, replicate 1": "too many neurite branches"}
{"gene": "vers (GeneID 39374)", "phenotype seen, replicate 1": "too many neurite branches"}
{"gene": "SMC6 (GeneID 42876)", "phenotype seen, replicate 1": "abnormal cell clusters"}
{"gene": "CG2291 (GeneID 35804)", "phenotype seen, replicate 1": "axon bundles split apart"}
{"gene": "CG6553 (GeneID 36537)", "phenotype seen, replicate 1": "beaded; swollen axons"}
{"gene": "brv1 (GeneID 40116)", "phenotype seen, replicate 1": "sheet-like cell extensions"}
{"gene": "mol (GeneID 34872)", "phenotype seen, replicate 1": "sheet-like cell extensions"}
{"gene": "CG10357 (GeneID 38435)", "phenotype seen, replicate 1": "beaded; swollen axons"}
{"gene": "hbn (GeneID 47894)", "phenotype seen, replicate 1": "too many neurite branches"}
{"gene": "JMJD4 (GeneID 35089)", "phenotype seen, replicate 1": "axon bundles split apart"}
{"gene": "CG31368 (GeneID 41437)", "phenotype seen, replicate 1": "abnormal cell clusters"}
{"gene": "CG31213 (GeneID 42382)", "phenotype seen, replicate 1": "abnormal cell clusters"}
{"gene": "br (GeneID 44505)", "phenotype seen, replicate 1": "too many neurite branches"}
{"gene": "CG6685 (GeneID 39172)", "phenotype seen, replicate 1": "cell fragments present"}
{"gene": "CG4325 (GeneID 31167)", "phenotype seen, replicate 1": "too many neurite branches"}
{"gene": "CG13323 (GeneID 36433)", "phenotype seen, replicate 1": "reduced axon outgrowth"}
{"gene": "CG14958 (GeneID 38387)", "phenotype seen, replicate 1": "axon bundles split apart"}
{"gene": "Ugt303B2 (GeneID 42776)", "phenotype seen, replicate 1": "too many neurite branches"}
{"gene": "gce (GeneID 32457)", "phenotype seen, replicate 1": "beaded; swollen axons"}
{"gene": "comm3 (GeneID 39696)", "phenotype seen, replicate 1": "abnormal cell clusters"}
{"gene": "CG3961 (GeneID 40056)", "phenotype seen, replicate 1": "abnormal cell clusters"}
{"gene": "RpS8 (GeneID 43532)", "phenotype seen, replicate 1": "axon bundles split apart"}
{"gene": "CG31122 (GeneID 42221)", "phenotype seen, replicate 1": "too many neurite branches"}
{"gene": "Cyp6a2 (GeneID 35587)", "phenotype seen, replicate 1": "abnormal cell clusters"}
{"gene": "CG31729 (GeneID 34736)", "phenotype seen, replicate 1": "axon bundles split apart"}
{"gene": "CG6420 (GeneID 43218)", "phenotype seen, replicate 1": "reduced axon outgrowth"}
{"gene": "nes (GeneID 40093)", "phenotype seen, replicate 1": "too many neurite branches"}
{"gene": "BomT2 (GeneID 50208)", "phenotype seen, replicate 1": "axon bundles split apart"}
{"gene": "CG33136 (GeneID 318894)", "phenotype seen, replicate 1": "abnormal cell clusters"}
{"gene": "sqz (GeneID 42300)", "phenotype seen, replicate 1": "axon bundles split apart"}
{"gene": "Eip93F (GeneID 44936)", "phenotype seen, replicate 1": "beaded; swollen axons"}

Reprinted from the listing, 3 entries:
{"gene": "CG31729 (GeneID 34736)", "phenotype seen, replicate 1": "axon bundles split apart"}
{"gene": "CG6420 (GeneID 43218)", "phenotype seen, replicate 1": "reduced axon outgrowth"}
{"gene": "nes (GeneID 40093)", "phenotype seen, replicate 1": "too many neurite branches"}
